These are yes or no findings as the source states them, for the method shown.

Chains of the proteins cited; added tags and fusions are not shown. Residues count along the entry.
UniProt P63165, residues 1-97: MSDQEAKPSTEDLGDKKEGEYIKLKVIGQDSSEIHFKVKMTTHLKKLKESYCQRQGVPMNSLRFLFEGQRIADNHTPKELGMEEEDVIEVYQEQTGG
UniProt Q9BZV1: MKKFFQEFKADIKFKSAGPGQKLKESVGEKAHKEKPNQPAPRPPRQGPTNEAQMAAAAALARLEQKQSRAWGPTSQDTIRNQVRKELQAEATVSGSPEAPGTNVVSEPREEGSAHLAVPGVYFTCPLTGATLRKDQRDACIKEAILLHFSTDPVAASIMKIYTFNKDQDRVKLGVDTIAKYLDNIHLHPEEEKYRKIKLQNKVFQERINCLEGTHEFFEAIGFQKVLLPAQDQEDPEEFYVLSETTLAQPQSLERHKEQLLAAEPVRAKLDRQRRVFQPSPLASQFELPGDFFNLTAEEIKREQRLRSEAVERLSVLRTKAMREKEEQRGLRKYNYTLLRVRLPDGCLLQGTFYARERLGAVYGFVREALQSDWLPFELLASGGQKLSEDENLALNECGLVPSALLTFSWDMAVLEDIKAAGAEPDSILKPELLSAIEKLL

The target in this assay is Atto594-SUMO1 (UniProt P63165). The experiment in a line: fluorescence polarisation; fluorescence anisotropy; labeled ubiquitin, ubiquitin chains or SUMO1 as probe, UBXD1 titrated; PBS pH 7.5, 25 °C; one-site fit; both purified.

Take “UBXD1 (1–441), recombinant, purified (from UniProt Q9BZV1 1-441)”: the binding result is “no binding”.

The values are drawn from article PMC10241913.
